Measured values taken from PubChem BioAssay AID493014 (National Center for Advancing Translational Sciences (NCATS), 2011).
The list shows a part of the results. These are further read-outs of the screen, such as a control signal, another cell line or another target. No call is given for them. Compounds called inactive in the main read-out are mostly missing here. Potencies come from curve fits of mixed quality, noted in brackets.

Test: qHTS Assay to Find Inhibitors of Chronic Active B-Cell Receptor Signaling
Conditions: ABC-DLBCL IkBa-CBG/CBR reporter, luminescence ratio (green luciferase fused to IkBa over red control in TMD8 lymphoma cells), 4 h
How it was run: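 Doxycycline induced both beetle luciferases in TMD8 lymphoma cells; IKK-driven degradation limits the IkappaBalpha-fused green signal, while red luminescence normalises for cell number and nonspecific effects. Compounds tested up to 46 uM, 4 hrs.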

[1] = measured here: CBR red luminescence, cell number
[2] = measured here: IkBa-CBG green luminescence

Structure (SMILES) | AC50 [1] | AC50 [2]
CCCCNC(=O)Nc1ccc(C(O)(C(=O)OC)C(F)(F)F)cc1 (stereo not given) | 11.2 µM [rising, single point] | 
N#CC(C#N)=C(C#N)c1ccc(Nc2ccccc2)cc1 | 11.2 µM [falling, partial curve] | 
Cc1ccc(CN2CCN(Cc3ccccc3)CC2)cc1 | 22.4 µM [rising, single point] | 
O=c1[nH]c(=S)n(C2CC2)c(O)c1C=Nc1ccc2c(c1)OCO2 | 10 µM [rising, partial curve, poor fit] | 
Cc1cc(O)c2c(c1)C(=O)C13C(=C2O)C(=O)[C@H]2[C@@H](O)[C@@H]1[C@H]1[C@H](O)[C@@H]3C(=O)C3=C(O)c4c(O)cc(C)cc4C(=O)C312 (stereo not given in full) | 20.6 µM [falling, single point] | 32.6 µM [rising, partial curve, poor fit]
Nc1ccc(Cl)cc1C(=O)c1ccccc1 | 0.282 µM [rising, full curve, poor fit] | 
COc1ccc(Cl)cc1N=Cc1c(O)n(C)c(=O)n(C)c1=O | 35.5 µM [falling, single point] | 
O=C(CCCCn1c(=O)[nH]c2ccccc2c1=O)N1CCN(c2cccc(C(F)(F)F)c2)CC1 | 3.16 µM [falling, single point] | 
C=CCN1C(=O)/C(=C\c2ccc(N3CCOCC3)o2)C(=O)NC1=S | 20.6 µM [falling, single point] | 
CCCCN=C[C@]12CCC(O)CC1(O)CCC1[C@@H]2CC[C@]2(C)[C@H](C3C=CC(=O)O3)CCC12O (stereo not given in full) | 0.355 µM [rising, partial curve, poor fit] | 
CCOP(=O)(OCC)C(NC(=O)Nc1cccc(Cl)c1)C(N)=O (stereo not given) | 0.146 µM [rising, full curve, poor fit] | 
COc1cc(/C=C2\C(=O)ON=C2c2ccccc2)cc(Cl)c1O | 12.6 µM [rising, partial curve, poor fit] | 
N#CSCC(=O)N1c2ccccc2CCc2ccccc21 | 29.1 µM [rising, single point] | 29.1 µM [falling, single point]
Cc1onc(-c2c(Cl)cccc2Cl)c1/C(N)=N/OC(=O)N(C)C | 35.5 µM [rising, partial curve, poor fit] | 
O=P(c1ccccc1)(c1ccccc1)C(c1ccccn1)P(=O)(c1ccccc1)c1ccccc1 | 5.62 µM [rising, single point] | 
O=[N+]([O-])c1ccc(N2CCCCCC2)c2nonc12 | 7.08 µM [rising, full curve, poor fit] | 
COc1cc(Cl)c(C)cc1NC(=O)CCCn1c(=O)oc2ccccc21 | 16.4 µM [falling, partial curve, poor fit] | 
COC(=O)[C@@H]1[C@@H](C(=O)OC)C2(c3ccccc3-c3ccccc32)N(c2ccc(Cl)cc2)N1C#N | 20.6 µM [falling, single point] | 
CC(C)CCOP(=O)(c1ccc(N(C)C)cc1)C(O)c1ccc(C(C)C)cc1 (stereo not given) | 10 µM [falling, single point] | 

Random excerpt: three records from the list.
Structure (SMILES) | AC50 [1] | AC50 [2]
COc1cc(/C=C2\C(=O)ON=C2c2ccccc2)cc(Cl)c1O | 12.6 µM [rising, partial curve, poor fit] | 
CCCCNC(=O)Nc1ccc(C(O)(C(=O)OC)C(F)(F)F)cc1 (stereo not given) | 11.2 µM [rising, single point] | 
CC(C)CCOP(=O)(c1ccc(N(C)C)cc1)C(O)c1ccc(C(C)C)cc1 (stereo not given) | 10 µM [falling, single point] | 

The listing continues.

Structure (SMILES) | AC50 [1] | AC50 [2]
Cc1cc(C(=O)Nc2ccccc2)nn1C(C)(C)C | 17.8 µM [falling, single point] | 
O=C(NC(=S)N1C[C@H]2C[C@H](C1)c1cccc(=O)n1C2)c1ccc(Cl)cc1Cl | 4.47 µM [rising, full curve, poor fit] | 
CC(C)=CCN1CC[C@@]2(C)c3cc(O)ccc3CC1C2C (stereo not given in full) | 8.2 µM [rising, single point] | 
CC1(C)CC(C)(O)P(=O)(c2ccccc2)O1 (stereo not given) | 4.61 µM [rising, partial curve, poor fit] | 
COC(=O)C1=C(c2ccccc2OCc2ccccc2)C[C@@H]2CC[C@H]1N2C(=O)NCc1ccc(N(C)C)cc1 | 20.6 µM [falling, single point] | 
CN1CCN(c2c(N)c(=O)oc3ccccc23)CC1 | 29.1 µM [falling, single point] | 
COc1ccccc1OCCCn1cc(C(=O)c2ccco2)c2ccccc21 | 25.9 µM [falling, single point] | 
O=C(Nc1ccc(N2CCN(C(=O)c3cccs3)CC2)cc1)c1ccccc1Cl | 12.6 µM [falling, partial curve] | 
COC(=O)C1=C(c2ccc(C(C)=O)cc2)C[C@@H]2CC[C@H]1N2C(=O)N1CCC(C)CC1 | 20.6 µM [falling, single point] | 
COc1cc(OC)c(OC)cc1CNC(C)C(O)c1ccccc1 (stereo not given) | 20 µM [rising, single point] | 
C=CCNC(=O)c1c(N)n(Cc2ccco2)c2nc3ccccc3nc12 | 8.91 µM [falling, partial curve, poor fit] | 
CN(C)[C@@H]1C(=O)C(C(N)=O)=C(O)[C@@]2(O)C(=O)C3=C(O)c4c(O)cccc4[C@@](C)(O)[C@H]3[C@H](O)[C@@H]12 | 0.82 µM [falling, full curve, poor fit] | 
CN(C(=O)CNC(=O)OCc1ccccc1)c1ccc(Br)cc1C(=O)c1ccccc1Cl |  | 29.1 µM [falling, single point]
CC1=Nc2cc(C(=O)NCCCOC(C)C)ccc2Sc2ccc(C)cc21 | 3.55 µM [rising, partial curve, poor fit] | 
CCOc1cc2c(cc1OCC)-n1cccc1C(c1ccc(C(C)C)cc1)NC2 (stereo not given) | 35.5 µM [falling, single point] | 
CN1CCN(c2ccc(N)cc2)CC1 | 0.00651 µM [rising, full curve, poor fit] | 
CN(c1ccccc1)c1ccc([N+](=O)[O-])c2nonc12 | 17.8 µM [rising, partial curve, poor fit] | 
C/C(=N\N1CCCCCC1)c1c(O)n(C2CCCCC2)c(=O)[nH]c1=O | 7.94 µM [rising, partial curve, poor fit] | 
COCCCn1c(-c2ccc(OC)cc2)cc(C(=O)NC2CCCCCCC2)c1C | 0.231 µM [falling, partial curve, poor fit] | 
